The text below walks through data of patent US20240034779A1.

The target in the test is cynomolgus complement factor D (CFD) (cynomolgus monkey). The experiment in a line: SPR (Biacore), pH 7.4 and pH 5.5. (In general: SPR reads the build-up and loss of mass on a sensor chip optically.)

No constants are given. Whether binding was seen depends on the method and setting. Binding can be weak; no strength is given.

B1: anti-CFD antibody 2 (clone 169C8) (antibody, human IgG1, lambda, L234A L235A, V domains shown)
VH: EVQVQESGPGLVKPSQTLSLTCTVSGGSITTSYYAWSWIRQPPGKGLEWMGDIANDGSTYYSPSLESRTSISRDTSKNQFSLQLSSVTPEDTAVYYCARLRSLYTDYDPHYYDYWGQGTQVTVSS
VL: SSALTQPSALSVTKGQTAKITCQGDLLPRHYAHWYQQKTGQAPKLIVYDDDIRPSGIPERFSGSNSGGVATLTIAGAQAEDEADYHCQSADSNDDAVFGGGTHLTVLS
B1: the binding result is reported as “binds”.
